Results are given in words; binding and its absence hold for the method and conditions named. Binding seen in cells or lysates may run through a third protein. Some entries that bind do so weakly or less than the wild type.
Molecular target: T1, Myeloid differentiation protein 2 (mouse (endogenous in lung tissue of C57BL/6 mice)) (UniProt Q9JHF9)
T1 sequence: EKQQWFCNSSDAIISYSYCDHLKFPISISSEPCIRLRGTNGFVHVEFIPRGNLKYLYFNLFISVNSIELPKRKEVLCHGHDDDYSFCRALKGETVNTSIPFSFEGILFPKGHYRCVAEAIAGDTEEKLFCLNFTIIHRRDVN
Experiment: co-IP; 300 ug protein of mouse lung tissue lysate; MD2 antibody overnight at 4 °C, protein A + G agarose, four washes with ice-cold PBS, Western blot for TLR4; mice of the groups CON, L6H21, OVA, OVA + L6H21 (10 mg/kg), OVA + L6H21 (20 mg/kg)

Chains of the proteins cited; added tags and fusions are not shown. Residues count along the entry.
UniProt Q9QUK6, residues 26-835: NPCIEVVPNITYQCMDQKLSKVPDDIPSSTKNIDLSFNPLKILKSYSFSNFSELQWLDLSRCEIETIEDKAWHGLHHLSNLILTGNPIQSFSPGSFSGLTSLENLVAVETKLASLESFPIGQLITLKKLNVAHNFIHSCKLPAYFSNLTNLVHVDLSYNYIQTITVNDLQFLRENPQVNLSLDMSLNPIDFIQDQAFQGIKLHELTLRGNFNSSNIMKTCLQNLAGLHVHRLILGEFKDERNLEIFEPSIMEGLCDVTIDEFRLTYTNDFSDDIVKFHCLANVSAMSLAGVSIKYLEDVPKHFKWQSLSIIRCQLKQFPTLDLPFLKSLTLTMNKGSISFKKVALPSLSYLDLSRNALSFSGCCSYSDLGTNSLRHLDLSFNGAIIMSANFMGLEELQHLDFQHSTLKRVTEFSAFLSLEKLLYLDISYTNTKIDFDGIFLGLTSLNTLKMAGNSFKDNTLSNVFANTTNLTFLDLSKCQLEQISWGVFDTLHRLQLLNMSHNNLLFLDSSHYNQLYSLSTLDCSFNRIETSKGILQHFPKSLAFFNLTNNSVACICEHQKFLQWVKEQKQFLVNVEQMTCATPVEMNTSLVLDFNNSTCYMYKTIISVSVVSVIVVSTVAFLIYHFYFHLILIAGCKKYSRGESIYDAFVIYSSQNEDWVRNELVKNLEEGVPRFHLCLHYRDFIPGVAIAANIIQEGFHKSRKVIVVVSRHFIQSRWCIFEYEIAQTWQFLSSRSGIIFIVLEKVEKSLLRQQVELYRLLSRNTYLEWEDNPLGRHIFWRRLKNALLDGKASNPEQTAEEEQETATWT

binding: binds
Substance: toll-like receptor 4 (from UniProt Q9QUK6 26-835)
